Source: PubChem BioAssay (Tox21)
This list was built around the results that the source calls inconclusive (neither active nor inactive); the mix of calls is not that of the screen. Where the call is inconclusive, the potency comes from a doubtful curve fit. Active and inactive are the calls of the source. Calls follow the shape of the full dose curve. Non-standard residues stand in square brackets, D forms with d. Residues, ends and D or L forms follow the SMILES beside them. *: point of attachment. Sta = CC(C)C[C@H](N)[C@@H](O)CC(=O)O; Isovaleryl = CC(C)CC(=O)*

Target: Beta-2 adrenergic receptor (Homo sapiens) (UniProt P07550)
Test: Adrenergic beta2 receptor (ADRB2) small molecule agonists, cell-based qHTS assay (AID 1963593);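 as to activation: CHO cells stably overexpressing human ADRB2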
Details: CHO-ADRB2 cells, cAMP HTRF, 30 min; activation: at 92.4 µM (top of the series) unless noted
Summary of the method: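 CHO cells stably over-expressing ADRB2 were plated overnight at 37C, then dosed with compounds plus a stimulation mix containing 100uM IBMX and 25uM Ro-20-1724 for 0.5hr at room temperature. cAMP was measured by HTRF competition, 1hr.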
% is scaled to controls: 0 for no effect and ±100 for the full control effect; potency is read from the fitted curve at half-maximal effect.

Row | Structure (SMILES) | Potency | activation
1 | Cc1ccc(NC(=O)N(C)C)cc1NC(=O)N(C)C | inactive | –
2 | Oc1ccccc1F | – | inconclusive: 38.5%
3 | COc1ccc(OC)c(OC)c1 | – | inconclusive: 55.6%
4 | CCCCCCCOC(=O)c1ccccc1C(=O)OCCCCCCC | inactive | –
5 | CC(C)CCO | inactive | –
6 | CCc1cccc(C)c1N(C(=O)CS(=O)(=O)O)C(C)COC (stereo not given) | inconclusive: 68.6 µM [inhibitor, single point] | –
7 | CNC1(C)C2CCC(C2)C1(C)C (stereo not given) | inactive | –
8 | O=Cc1ccc(F)cc1 | inactive | –
9 | CC(C)CC(=O)N[C@H](C(=O)N[C@H](C(=O)N[C@@H](CC(C)C)[C@@H](O)CC(=O)N[C@@H](C)C(=O)N[C@@H](CC(C)C)[C@@H](O)CC(=O)O)C(C)C)C(C)C (Isovaleryl-VV[Sta]A[Sta]-OH) | – | inconclusive: 19.5% [at 42.5 µM]
10 | Cc1cccc(C)c1NC(=O)CN1CCCCCC1 | inactive | –
11 | Cc1cc(-c2ccccc2)nnc1NCCN1CCOCC1 | – | inconclusive: 6.64% [at 42.5 µM]
12 | CC1CCC(C(C)(C)S)C(=O)C1 (stereo not given) | – | inconclusive: -8.86%
13 | COC(=O)CCCCC(=O)O | inactive | –
14 | C=C1CC/C=C(\C)CC[C@@H]2[C@@H]1CC2(C)C | – | inconclusive: 1.32%
15 | NC(=O)c1cccc([N+](=O)[O-])c1 | – | inconclusive: 7.26%
16 | COc1nc(C)nc(NC(=O)NS(=O)(=O)c2ccccc2OCCCl)n1 | – | inconclusive: 41.7%
17 | CCCc1c2oc(C(=O)O)cc(=O)c2cc2c(=O)cc(C(=O)O)n(CC)c12 | inactive | –
18 | CC(C)=CCC/C(C)=C/C(=O)O | inactive | –
19 | O=Cc1ccc([N+](=O)[O-])cc1 | inconclusive: 15.4 µM [inhibitor, single point] | –
20 | O=C(OOC(=O)c1ccccc1)c1ccccc1 | inconclusive: 0.668 µM [inhibitor, single point] | –

Row | Structure (SMILES) | Potency | activation
21 | O=C(Nc1ccc(C(=O)O)c(O)c1)c1ccccc1 | inactive | –
22 | Cc1cc(C)c(C=O)c(C)c1 | – | inconclusive: 7.76%
23 | COCCOCCOCCOCCO | – | inconclusive: -4.98%
24 | CCCCCCCCS | – | inconclusive: 12.5%
25 | OC[C@H]1O[C@@H]2O[C@H]3[C@H](O)[C@@H](O)[C@@H](O[C@H]4[C@H](O)[C@@H](O)[C@@H](O[C@H]5[C@H](O)[C@@H](O)[C@@H](O[C@H]6[C@H](O)[C@@H](O)[C@@H](O[C@H]7[C@H](O)[C@@H](O)[C@@H](O[C@H]8[C@H](O)[C@@H](O)[C@@H](O[C@H]1[C@H](O)[C@H]2O)O[C@@H]8CO)O[C@@H]7CO)O[C@@H]6CO)O[C@@H]5CO)O[C@@H]4CO)O[C@@H]3CO | inactive | –
26 | COC(Cc1ccccc1)OC | inactive | –
27 | CCOC(=O)CC(C)=O | – | inconclusive: -2.49%
28 | CC1(C)CO[C@@H](CC(=O)O)CN1 | inactive | –
29 | CC(C)=CCC/C(C)=C\C#N | inconclusive: 6.86 µM [inhibitor] | –
30 | O=C(O)c1ccco1 | inconclusive: 6.86 µM [inhibitor, single point] | –
31 | CCOC(=O)C(=O)OCC | inactive | –
32 | C=C(C)C(=O)OC1CC(C)CC(C)(C)C1 (stereo not given) | – | inconclusive: -10.5%
33 | CCOC(=O)C(C)(C)C | inconclusive: 0.549 µM [inhibitor, single point] | –
34 | O=C1OCCO1 | – | inconclusive: -13.4%
35 | OCC(CBr)(CBr)CBr | – | inconclusive: 13.8%
36 | CC(O)CC(C)O (stereo not given) | inactive | –
37 | Nc1ccn([C@@H]2O[C@H](CO)[C@@H](O)[C@@H]2O)c(=O)n1 | – | inconclusive: 4.36%
38 | CCCCCCCCCCCCCCC(=O)O | inconclusive: 0.972 µM [inhibitor, partial curve, poor fit] | –
39 | NCCCC[C@H](N[C@@H](CCc1ccccc1)C(=O)O)C(=O)N1CCC[C@H]1C(=O)O | inactive | –
40 | CC(=O)Nc1nnc(S(N)(=O)=O)s1 | – | inconclusive: -33.9%

Individual results from the results shown.
activation with Oc1ccccc1F reads inconclusive: 38.5%
Potency with CCc1cccc(C)c1N(C(=O)CS(=O)(=O)O)C(C)COC (stereo not given) reads inconclusive: 68.6 µM [inhibitor, single point]
Potency with CCCc1c2oc(C(=O)O)cc(=O)c2cc2c(=O)cc(C(=O)O)n(CC)c12 reads inactive
